Measurements from patent US20210369842A1 (Genmab, published 2021).
Results are given in words; binding and its absence hold for the method and conditions named. Some results given as binding are weak or reduced against the parent protein; the word gives no strength.

Biological target: Shuffle 6
Test: flow cytometry on transfected HEK293-T17 cells, 1 µg/mL antibody, APC-labeled AffiniPure F(ab')2 fragment as secondary

B1: CD137-009 (chimeric rabbit/human CD137 antibody) (antibody, V domains shown)
VH: QSLEESGGRLVTPGTPLTLTCTVSGFSLNDYWMSWVRQAPGKGLEWIGYIDVGGSLYYASWAKGRFTISRTSTTVDLKMTSLTTEDTATYFCARGGLTYGFDLWGPGTLVTVSS
VL: DIVMTQTPASVSEPVGGTVTINCQASEDISSYLAWYQQKPGQRPKRLIYGASDLASGVPSRFSASGSGTEYALTISDLESADAATYYCHYYATISGLGVAFGGGTEVVVK
notes: also called antibody CD137-009; rabbit anti-CD137-009
- binding: binds
